Source: publication PMC7819943, “Rice protein-binding microarrays: a tool to detect cis-acting elements near promoter regions in rice”
This is one part of the list.

Amino acid sequences for entries named in this document (tags omitted).
UniProt Q0JBA9, entry or part of it: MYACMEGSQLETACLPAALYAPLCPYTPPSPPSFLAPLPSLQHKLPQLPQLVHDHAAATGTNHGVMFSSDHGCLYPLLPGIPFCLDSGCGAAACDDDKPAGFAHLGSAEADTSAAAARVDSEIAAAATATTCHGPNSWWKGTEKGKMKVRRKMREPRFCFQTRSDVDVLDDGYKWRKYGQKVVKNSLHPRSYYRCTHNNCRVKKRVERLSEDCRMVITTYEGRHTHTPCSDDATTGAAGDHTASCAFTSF

Each sequence was assayed against OsWRKY34 (Oryza sativa, UniProt Q0JBA9 1-250) (assay: protein-binding microarray (RPBM); PBS, 2% BSA, 51.3 ng/ul salmon testes DNA, 50 uM zinc acetate, 200 nM TF, 25 C, 1 h; high values mean tight binding). Settings: protein: recombinant; tags: N-terminal polyhistidine and DsRed monomer fusion (pET32a); label: CyDye5-dUTP incorporated in the synthesized complementary strand; 3' TTTTT single-stranded linker to array surface; dsDNA, one strand shown.
Outline: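 Binding signal here means per-feature fluorescence intensity in arbitrary units. The values were read on an Axon 4000B scanner after a custom Agilent array, double-stranded by primer extension with Cy5-dUTP, was incubated with 200 nM protein at 25 °C for 1 h in PBS with 2% BSA, salmon testes DNA and 50 µM zinc acetate, then washed. The proteins were transcription factors with an N-terminal polyhistidine tag and DsRed, expressed in E. coli BL21-CodonPlus and purified on Ni–NTA.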

Sequence	binding signal
TCATACTATTATATTCTATGCTCTGGATCTACACATATGTCGGAGTCACCTAGTGCAG	10100 fluorescence intensity (a.u.)
GCAGACCATCAAATGCGAGCATCCATTCTTTGTCTGGATTCGGAGTCACCTAGTGCAG	10300 fluorescence intensity (a.u.)
TCTTCTACTCCCTCCGCCCCAAATTAGTTGTCTCTTTAGGCGGAGTCACCTAGTGCAG	8160 fluorescence intensity (a.u.)
GGGATTTCCATCGTTTTGGGTTGGCATATCTACGAATAAGCGGAGTCACCTAGTGCAG	8620 fluorescence intensity (a.u.)
ACCTTTCATTTGTGGCGCATTAAACATTGGTATCTAACATCGGAGTCACCTAGTGCAG	9070 fluorescence intensity (a.u.)
CCTATTTTACCCTCAACTATCTTCCCACTCTCACATAAACCGGAGTCACCTAGTGCAG	8620 fluorescence intensity (a.u.)
ACTTTTGGCTGCCACAGTTTGTTAGACATGTGTTTGGTTCCGGAGTCACCTAGTGCAG	12300 fluorescence intensity (a.u.)
CCCAAAGTCCACACAAACTTTCGATTCGATTTCTCCGATCCGGAGTCACCTAGTGCAG	8100 fluorescence intensity (a.u.)
AAGCGCCGACTCTTGTTCACATACATCACAACCTCACGCGCGGAGTCACCTAGTGCAG	11100 fluorescence intensity (a.u.)
GGGATGCAGTTTAGGTTTTGCGTTATTCCTTTTCTGTTCCCGGAGTCACCTAGTGCAG	9720 fluorescence intensity (a.u.)
GATAGCTCTCTGTTCTTGCATTGGTTTTGCTTCCCTCTGCCGGAGTCACCTAGTGCAG	8540 fluorescence intensity (a.u.)
GAGAGAGTACTTCTTCTTCCAACGTCGTAGTCTTTTCAATCGGAGTCACCTAGTGCAG	9540 fluorescence intensity (a.u.)
TACCTACCTACACCCGCCCACCCCGTCCACCGCGCCACTACGGAGTCACCTAGTGCAG	9620 fluorescence intensity (a.u.)
TTGTTGGGTGCTGAATTGCTGATGTGGTGGGGTGACATGACGGAGTCACCTAGTGCAG	12500 fluorescence intensity (a.u.)
ACCCCGAGCTCTTCCTCGCCTCGCCGATCGCCGCGCCGCTCGGAGTCACCTAGTGCAG	9900 fluorescence intensity (a.u.)
CGTATCACTGTAGCCCAATCACGACATATTATCATCTACTCGGAGTCACCTAGTGCAG	9980 fluorescence intensity (a.u.)
CCTTCTCCACTCTTCTTCTCAAATCCTCTCTCTTCCTCTTCGGAGTCACCTAGTGCAG	9160 fluorescence intensity (a.u.)
GCCCCAGCCGCCGCCACCGCCGCCGCCGCCGTCCTCCATGCGGAGTCACCTAGTGCAG	9520 fluorescence intensity (a.u.)
CTTATCCCCGTTTGTTTAACTTCTCATTATTTATGCTCCGCGGAGTCACCTAGTGCAG	9050 fluorescence intensity (a.u.)
TCATATCCGCAGCCTTGTTCTTGCTGTTCTCACTAATCAACGGAGTCACCTAGTGCAG	9580 fluorescence intensity (a.u.)
ATTAGTAGGCTACACATGTTCTTCCTTTGTTTATCTAGTTCGGAGTCACCTAGTGCAG	9930 fluorescence intensity (a.u.)
GCCCGTCGCTCCAGCAGCTGCCACCCGCGCGCGCCGCCGCCGGAGTCACCTAGTGCAG	10700 fluorescence intensity (a.u.)
GGGTTTTGGAGTGGTGGTGGTGGAGGATTGGAGTTGGGGTCGGAGTCACCTAGTGCAG	11600 fluorescence intensity (a.u.)
GCTTTTACTCTGCTTCCTCTGTCTCACTCGCTGCTCTGTACGGAGTCACCTAGTGCAG	12300 fluorescence intensity (a.u.)
ACTGGTGGCACATTGTAGATATTGCAAAATTCGTTTCCAACGGAGTCACCTAGTGCAG	8120 fluorescence intensity (a.u.)
TAGTACATCCATCCATCCATTCACTTCCATCCACGGATCACGGAGTCACCTAGTGCAG	10300 fluorescence intensity (a.u.)
TTGTGTTTATATAATCCTCCACCTCCGCGCACGTCTTGATCGGAGTCACCTAGTGCAG	9220 fluorescence intensity (a.u.)

Sequence	binding signal
GCTACTAGTCTACCTTATAATCCACCTACTGGGTCTTACACGGAGTCACCTAGTGCAG	10800 fluorescence intensity (a.u.)
ATTGCCTTACTTGTTGCACTATGGAGGTCCTGAGAGCCTTCGGAGTCACCTAGTGCAG	8110 fluorescence intensity (a.u.)
TTCTATCCATTTTCATTTTCCATTTTTCTATTTAGTTTTTCGGAGTCACCTAGTGCAG	12000 fluorescence intensity (a.u.)
CCACACCCATTGCCACCTTCTGCGCGCTACTAAGGGCCGCCGGAGTCACCTAGTGCAG	10700 fluorescence intensity (a.u.)
ATCACGCAATCCCGGCTCTCTTCTTTGTTCCCGCGCGTGGCGGAGTCACCTAGTGCAG	10400 fluorescence intensity (a.u.)
ACCCACAACATCACAGCACGGTTGCCGCTTGCTCCGGTGTCGGAGTCACCTAGTGCAG	8160 fluorescence intensity (a.u.)
GTTATAGGCCTTGATGAGTTATAGCACTTTGTTATTGATACGGAGTCACCTAGTGCAG	8140 fluorescence intensity (a.u.)
CGTTGGTGTGGGAGAAGATCCATAATGTTGTTGGGTATTGCGGAGTCACCTAGTGCAG	10600 fluorescence intensity (a.u.)
TATATTTTGTTTTTGTCTCTAATATAGGTTTATAACTAGCCGGAGTCACCTAGTGCAG	8570 fluorescence intensity (a.u.)
ACTACCTTCTCTTCAACACCCAAAAGATCATCTCTTGAACCGGAGTCACCTAGTGCAG	8970 fluorescence intensity (a.u.)
CGAGCTGCTTCTTCGTCTCCAACTTCCCTTATCTCTATCACGGAGTCACCTAGTGCAG	10500 fluorescence intensity (a.u.)
AATTGTTGACTAATCGATTCATGCAGTTACGTACTGTCATCGGAGTCACCTAGTGCAG	8930 fluorescence intensity (a.u.)
CACTGCCCTGTTCATCTCTTTCTTTTTTATTCGATTCCTCCGGAGTCACCTAGTGCAG	11600 fluorescence intensity (a.u.)
CATGCCAGCCCATGCCTTCCCGTCCCTAGATCCGCCATATCGGAGTCACCTAGTGCAG	8290 fluorescence intensity (a.u.)
GTTTTTTTTACCACCCACAGCACCGAGCCGCTGACCTTATCGGAGTCACCTAGTGCAG	8410 fluorescence intensity (a.u.)
TACATGGGCAACAGCCTTCCGTGGGCTAGTACTTATTCGGCGGAGTCACCTAGTGCAG	8090 fluorescence intensity (a.u.)
GGGATGATTGCTTCTGGATCTTGTGGGGATTTGTAAGTCACGGAGTCACCTAGTGCAG	11700 fluorescence intensity (a.u.)
GGTGAGCACGACTAGTCGCGTATTAGCCTCTCGTCCGACGCGGAGTCACCTAGTGCAG	8550 fluorescence intensity (a.u.)
TTATCTTTTCTTTAAGCTCTGTACAACTTGCCAATATGTTCGGAGTCACCTAGTGCAG	8540 fluorescence intensity (a.u.)
GTGTTTTTTTGGACTGAGTTGTTTTTATTTTTGAGGGGAACGGAGTCACCTAGTGCAG	10700 fluorescence intensity (a.u.)
CGGCGGTGGGTCGTCTTCCTCGTTGCCGGTCGGCACCCTCCGGAGTCACCTAGTGCAG	10800 fluorescence intensity (a.u.)
GGGGTGTTTGGATAGGGCTAAAAATTTTTTAATCTCATTCCGGAGTCACCTAGTGCAG	11100 fluorescence intensity (a.u.)
GGTGCTTCAATTTGTTCTTATAATTTCTTGCTTGGTCTGCCGGAGTCACCTAGTGCAG	13300 fluorescence intensity (a.u.)
TATTATGAAAACACTATTCTCTCCCAATGCACAACTTAATCGGAGTCACCTAGTGCAG	8320 fluorescence intensity (a.u.)
TTCTTCGTTGCTGCTGGTTTGGTGGGAAGAAGAATTGGTGCGGAGTCACCTAGTGCAG	8200 fluorescence intensity (a.u.)
CTCGATCACGTACTACTACACATAGACCTACTACTTGAGCCGGAGTCACCTAGTGCAG	8620 fluorescence intensity (a.u.)
GCTCAAGAATTGAGCCCATAGTTCATCTGTTCTTTGCAAACGGAGTCACCTAGTGCAG	8640 fluorescence intensity (a.u.)

Quoted at random: two entries already listed.
Sequence	binding signal
CATGCCAGCCCATGCCTTCCCGTCCCTAGATCCGCCATATCGGAGTCACCTAGTGCAG	8290 fluorescence intensity (a.u.)
CGAGCTGCTTCTTCGTCTCCAACTTCCCTTATCTCTATCACGGAGTCACCTAGTGCAG	10500 fluorescence intensity (a.u.)
